Reference: PubChem BioAssay AID1508587 (Peter MacCallum Cancer Centre, 2020)
This is an unselected part of about 1,600 reagents tested. Of all reagents, 623 (39%) were called active. 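Calls are for each duplex; lactate ratios contain extreme outliers.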 The numbers tell different reagents against one gene apart. Further read-outs or replicates are left out here.

Purpose: 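Knockdowns that add to vemurafenib's cut in melanoma glycolysis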 (follow-up of hits)
Cell system: human WM266.4 melanoma cells with a BRAF V600 mutation
Reagents: single siRNA against human genes, 25 nM
Time to read-out: 96 h
Challenge: vemurafenib 300 nM (about IC25), given 48 h after transfection for 48 h
Measured: 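Medium lactate read by absorbance over DAPI-counted nuclei; ratio with versus without vemurafenib, set against non-targeting siRNA, averaged over 2 replicates; cell number also recorded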
Scale: lactate per cell, drug vs no drug: higher = less drug-induced drop in lactate per cell
Active means: 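Enhancer call for any duplex whose drug versus no-drug per-cell lactate ratio is below 0.55 (2 SD beneath non-targeting average); genes confirmed when at least 2 of their 4 duplexes qualify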

gene knocked down	reagent	lactate per cell, drug vs no drug	outcome
EPC2 (GeneID 26122)	1	0.54	active
EPC2 (GeneID 26122)	2	0.16	active
EPC2 (GeneID 26122)	3	0.6	inactive
EPC2 (GeneID 26122)	4	0.52	active
GOLM2 (GeneID 113201)	1	0.5	active
GOLM2 (GeneID 113201)	2	0.52	active
GOLM2 (GeneID 113201)	3	0.54	active
GOLM2 (GeneID 113201)	4	0.62	inactive
FANCM (GeneID 57697)	1	0.5	active
FANCM (GeneID 57697)	2	0.45	active
FANCM (GeneID 57697)	3	0.71	inactive
FANCM (GeneID 57697)	4	0.68	inactive
SKIC3 (GeneID 9652)	1	0.72	inactive
SKIC3 (GeneID 9652)	2	0.71	inactive
SKIC3 (GeneID 9652)	3	0.35	active
SKIC3 (GeneID 9652)	4	0.75	inactive
HTR7 (GeneID 3363)	1	0.66	inactive
HTR7 (GeneID 3363)	2	0.62	inactive
HTR7 (GeneID 3363)	3	0.45	active
HTR7 (GeneID 3363)	4	0.74	inactive
SHC1 (GeneID 6464)	1	0.65	inactive
SHC1 (GeneID 6464)	2	0.52	active
SHC1 (GeneID 6464)	3	0.46	active
SHC1 (GeneID 6464)	4	0.87	inactive

Part of the list above, set out differently:
{"gene knocked down": "GOLM2 (GeneID 113201)", "reagent": 1, "lactate per cell, drug vs no drug": 0.5, "outcome": "active"}
{"gene knocked down": "GOLM2 (GeneID 113201)", "reagent": 2, "lactate per cell, drug vs no drug": 0.52, "outcome": "active"}
{"gene knocked down": "GOLM2 (GeneID 113201)", "reagent": 3, "lactate per cell, drug vs no drug": 0.54, "outcome": "active"}
{"gene knocked down": "GOLM2 (GeneID 113201)", "reagent": 4, "lactate per cell, drug vs no drug": 0.62, "outcome": "inactive"}

Continued.
gene knocked down	reagent	lactate per cell, drug vs no drug	outcome
GFRA4 (GeneID 64096)	1	0.6	inactive
GFRA4 (GeneID 64096)	2	0.4	active
GFRA4 (GeneID 64096)	3	0.46	active
GFRA4 (GeneID 64096)	4	0.62	inactive
MED12 (GeneID 9968)	1	0.68	inactive
MED12 (GeneID 9968)	2	0.55	inactive
MED12 (GeneID 9968)	3	0.48	active
MED12 (GeneID 9968)	4	0.46	active
PENK (GeneID 5179)	1	0.16	active
PENK (GeneID 5179)	2	0.4	active
PENK (GeneID 5179)	3	0.95	inactive
PENK (GeneID 5179)	4	0.6	inactive
ZKSCAN4 (GeneID 387032)	1	0.62	inactive
ZKSCAN4 (GeneID 387032)	2	0.68	inactive
ZKSCAN4 (GeneID 387032)	3	0.55	inactive
ZKSCAN4 (GeneID 387032)	4	0.52	active
RFC3 (GeneID 5983)	1	0.63	inactive
RFC3 (GeneID 5983)	2	0.63	inactive
RFC3 (GeneID 5983)	3	0.55	inactive
RFC3 (GeneID 5983)	4	0.69	inactive
RTTN (GeneID 25914)	1	0.57	inactive
RTTN (GeneID 25914)	2	0.74	inactive
RTTN (GeneID 25914)	3	0.65	inactive
RTTN (GeneID 25914)	4	1.18	inactive
STRBP (GeneID 55342)	1	0.5	active
STRBP (GeneID 55342)	2	0.62	inactive
STRBP (GeneID 55342)	3	0.93	inactive
STRBP (GeneID 55342)	4	0.55	inactive
